These are yes or no findings as the source states them, for the method shown.
Molecular target: T1, SoYb (Drosophila) (UniProt Q9VL52)
T1 sequence: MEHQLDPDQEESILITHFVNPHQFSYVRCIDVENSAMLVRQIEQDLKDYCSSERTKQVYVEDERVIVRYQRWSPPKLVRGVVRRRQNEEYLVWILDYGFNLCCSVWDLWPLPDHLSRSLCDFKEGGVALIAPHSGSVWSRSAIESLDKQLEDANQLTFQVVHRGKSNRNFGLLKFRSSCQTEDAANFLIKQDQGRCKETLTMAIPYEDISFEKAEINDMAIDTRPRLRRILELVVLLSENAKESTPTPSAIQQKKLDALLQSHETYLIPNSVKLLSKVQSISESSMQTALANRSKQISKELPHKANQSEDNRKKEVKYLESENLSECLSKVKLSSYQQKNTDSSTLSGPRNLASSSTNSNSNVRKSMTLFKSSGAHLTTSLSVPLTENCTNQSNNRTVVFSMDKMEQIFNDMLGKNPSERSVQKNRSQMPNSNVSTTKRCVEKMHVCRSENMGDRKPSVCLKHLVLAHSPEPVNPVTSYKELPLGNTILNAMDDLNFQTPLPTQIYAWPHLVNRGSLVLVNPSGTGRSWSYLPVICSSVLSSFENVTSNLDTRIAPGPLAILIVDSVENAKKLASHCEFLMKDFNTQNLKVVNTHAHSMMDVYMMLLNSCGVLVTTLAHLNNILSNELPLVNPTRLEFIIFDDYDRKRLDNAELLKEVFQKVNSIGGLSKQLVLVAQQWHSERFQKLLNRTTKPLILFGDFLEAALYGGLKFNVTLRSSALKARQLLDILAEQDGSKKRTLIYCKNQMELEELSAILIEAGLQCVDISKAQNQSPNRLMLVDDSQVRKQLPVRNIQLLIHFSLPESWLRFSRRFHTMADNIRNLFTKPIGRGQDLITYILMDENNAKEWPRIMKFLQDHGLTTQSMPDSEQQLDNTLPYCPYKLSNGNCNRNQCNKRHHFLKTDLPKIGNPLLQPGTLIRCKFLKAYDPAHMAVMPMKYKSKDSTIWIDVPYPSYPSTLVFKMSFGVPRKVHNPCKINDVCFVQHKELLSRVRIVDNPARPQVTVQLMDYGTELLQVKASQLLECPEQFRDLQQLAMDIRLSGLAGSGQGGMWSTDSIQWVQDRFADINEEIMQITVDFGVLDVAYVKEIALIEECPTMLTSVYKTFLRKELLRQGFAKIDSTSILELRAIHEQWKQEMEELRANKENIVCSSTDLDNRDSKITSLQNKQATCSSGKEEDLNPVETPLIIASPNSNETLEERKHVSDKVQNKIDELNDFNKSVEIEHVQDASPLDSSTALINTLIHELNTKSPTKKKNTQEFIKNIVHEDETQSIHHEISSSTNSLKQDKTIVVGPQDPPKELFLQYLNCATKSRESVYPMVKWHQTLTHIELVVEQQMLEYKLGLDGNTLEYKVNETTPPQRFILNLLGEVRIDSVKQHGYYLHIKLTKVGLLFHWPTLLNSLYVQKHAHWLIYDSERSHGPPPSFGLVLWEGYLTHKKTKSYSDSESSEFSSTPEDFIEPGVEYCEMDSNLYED
Assay: ReLo

B1: BoYb (protein, UniProt Q9VNP5 1-1059)
chain: MIKISDEKTWQSSRDSVYEVGDSYSGQNANRPLVATNCSEYAVAHANCQLRPVRRFAEVSLLPDILETMRNLGLNRLLRLQSYTWPHLAGGSGHGAMIVGSPASGRTFAYIPPVCHAVSRALMDFTGQCEDVEHDISQPDRYGPIALILVPDLRRVHQVSAMCLALLRKAHKNDSVTLALNVSSTKSSQFFLKLLNGVGCLVATPAQLVWFWQEAPGLMRFPCLQFLVYDDVDLMSREQLQDVQQVLQEILPLSHSPQVVMVSKSYCHTLMSKLRAVNDKPALVFGDILEAALYGGTRIRISIMRSEAKANAVVQMLQQCSPEEFRTVIFCSDDGDMQCLVAALEVQHYSCLPYYQTADLEVRQQVHSWQARSNGVILLCTDNCPELDIRDAHTIIHHSMSHSWSKFKLRHLKISDNLCNMVKPTASIVKKPLYSLVLLDDNNHRQLPRLVDFLQLHQKVDHRLVEVAKRIRQELGKARNDQHQLCDQILVLGKCYDPVCESRHRLSHIDRRPDYLPASGDVKVQLVKVYSPTHFCVRLLEHLPPKGTWRMMEYSAVQEFRMQLTQIKEPRRYWPPVAGAICMYHTTFTKERVRVLKVAAIKNTNIVQSDLTVKLQALDVDTRIFSTNCGKLFECPEALQQEAPLACDLRLPGWVPYFGERSWTEENIRNVNLILTQLPKDHFLQAKILFVAAGTLFVQDLVAIMYADQFKAHVRHLSLARRLVEATLVKRSENAAEMIREFFAEVIIEDDIDENVQDSKEKANSKPHEKMKGKMTDQPAKLQSQPPLSGRCLRLANMAHESVKENQLHQELQERRYETPEIPHQSNESDIPQSNEDRFSQLYECIMNCASLQLEDESKPAKHPDHVLSESVEFHKIMTNEDATPDHTQEKTALLLLPNNVARPSVTYYQTMTTLEFQVFLPEDDHDYKALLLGAQLFFRAISKSSDLILQFIMTLRFPYSSMSHNIRGRTVYISVKKLLALIDPLAFREYRFLKPNHDLFDKVDKQLQETQNRLVRFLEDMNYVKRNFEGQEKRETSEDEEVNVEGIERPDCHKIWDL
With B1 the binding was “no binding”.

Source: publication doi:10.1101/2024.05.31.596839
